# Measured values from PubChem BioAssay (NCATS).
# “And” between values parts separate entries of the source, which are not always exact repeats. Equal values may be shown once. The list shows a part of the results. The main result of the screen is listed elsewhere. These columns were measured beside it and carry no call. Most of these compounds were active or inconclusive in the main read-out, so they are no random draw. For part of these data: Words in brackets tell the shape of the fitted curve; partial curves, single points and poor fits give uncertain potencies.
# Columns and labels:
# [1] = qHTS assay for small molecule antagonists of androgen receptor signaling (AID 588516); settings: AR-UAS-bla HEK293, beta-lactamase ratio, antagonist mode, 16 h
# In short: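 Antagonist-mode qHTS: inhibition of R1881 (10 nM)-driven beta-lactamase expression in GripTite HEK 293 cells is measured after 16 h; values are Hill-derived IC50s normalized between R1881 and DMSO wells.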
# [2] = qHTS assay for small molecule antagonists of peroxisome proliferator-activated receptor gamma signaling (AID 588537); settings: HEK293 PPARg-UAS-bla, beta-lactamase ratio, antagonist mode; measured here: W460 blue channel
# In short: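 HEK293 cells, PPAR-gamma-UAS-bla, 3000/well. Pre-incubation 6-6.5 h, 37 C. Compound titration with rosiglitazone 50 nM final, 16 h. CCF4 dye, 2 h RT, dual-emission fluorescence.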
# [3] = qHTS assay for small molecule antagonists of vitamin D receptor signaling (AID 588541); settings: HEK293T VDR-UAS-bla, beta-lactamase ratio, antagonist mode; measured here: W460 blue channel (cell viability)
# [4] = qHTS assay for small molecule agonists of retinoid X receptor alpha signaling (AID 588544); settings: HEK293T RXRa-UAS-bla, beta-lactamase reporter, 18 h; 530 nm emission
# [5] = qHTS assay for small molecule antagonists of retinoid X receptor alpha signaling (AID 588546); settings: HEK293T RXRa-UAS-bla, beta-lactamase ratio, antagonist mode; measured here: W530 green channel, cytotoxicity proxy;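 further: cells stimulated with 9-cis-retinoic acid as agonist; on the % scale 0 is the no-effect control and ±100 the full control effect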
# In short: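 Beta-lactamase reporter inhibition, read as CCF4 fluorescence ratio (ex 405, em 460/530 nm) after 2 h at RT. HEK293T UAS-bla cells, 2500/well, were stimulated with 9-cis-RA at 500 or 100 nM final alongside test compound for 18 h at 37 C.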
# [6] = qHTS assay for small molecule antagonists of peroxisome proliferator-activated receptor delta signaling (AID 588535); settings: HEK293T PPARd-UAS-bla, beta-lactamase FRET ratio, 18 h; 460 nm channel;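 further: cells co-treated with a PPAR-delta agonist as stimulator during compound exposure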
# In short: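 Compounds tested in titration on PPAR-delta-UAS-bla HEK293T cells grown in charcoal/dextran-stripped serum (2%); beta-lactamase activity read via CCF4 emission at 460 and 530 nm.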
# [7] = qHTS assay for small molecule antagonists of glucocorticoid receptor signaling (AID 588533); settings: HeLa MMTV-bla, GRE beta-lactamase ratio, antagonist mode, 18 h; measured here: W530 channel AC50
# [8] = S16 Schwann cell PMP22 intronic element beta-lactamase assay (AID 624044); settings: S16 rat Schwann cells, PMP22 element beta-lactamase FRET, 24 h
# In short: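 Beta-lactamase reporter under a PMP22 intronic regulatory element in stable S16 rat Schwann cells; 24 h compound exposure. 460 nm blue signal normalized between DMSO (0%) and potassium clavulanate, with 535 nm FRET tracking viability; curves classed by r2 and response.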
# [9] = measured here: W460 blue channel fit
# [10] = measured here: W530 green channel, cytotoxicity/artifact
# [11] = measured here: 460 nm blue channel
# [12] = measured here: 530 nm viability channel
smiles,measurement,setting,value
O=C1C(Cl)=C(Cl)C(=O)C(Cl)=C1Cl,AC50,[1]; [9],"12.6 µM [falling, full curve, poor fit]"
same,AC50,[1]; [10],"26.8 µM [rising, partial curve]"
same,AC50,[2],"31.6 µM [falling, full curve, poor fit]"
same,AC50,[3],"2.82 µM [falling, full curve]"
same,max response,[4],-21.9%
same,max response,[5],-27.3%
CCOP(=O)(OCC)OC(Cl)C(Cl)(Cl)Cl (stereo not drawn),AC50,[1]; [10],"10 µM [falling, partial curve, poor fit]"
same,AC50,[2],"17.8 µM [falling, partial curve, poor fit]"
same,AC50,[3],"44.7 µM [falling, single point]"
Nc1ccccc1Cl,AC50,[1]; [9],"0.0398 µM [falling, full curve, poor fit]"
same,AC50,[2],"50.1 µM [rising, single point]"
C1CC[CH]([Sn]([CH]2CCCCC2)[CH]2CCCCC2)CC1,AC50,[1]; [9],"28.2 µM [falling, full curve, poor fit]"
same,AC50,[1]; [10],"14.1 µM [rising, partial curve]"
same,max response,[6],-32.1%
same,AC50,[2],"17.8 µM [falling, full curve, poor fit]"
same,AC50,[3],"44.7 µM [falling, partial curve, poor fit]"
same,max response,[4],10.3%
same,max response,[5],-24.1%
CCOP(=O)(NC(C)C)Oc1ccc(SC)c(C)c1 (stereo not drawn),AC50,[1]; [10],"50.1 µM [rising, single point]"
same,AC50,[7],"3.16 µM [falling, partial curve, poor fit]"
same,max response,[6],38.6%
same,AC50,[2],"50.1 µM [falling, partial curve, poor fit]"
same,max response,[4],22.6%
C=CC(=O)OCCCCCC(C)C,AC50,[1]; [9],"25.1 µM [rising, full curve, poor fit]"
same,AC50,[2],"0.2 µM [falling, full curve, poor fit]"
Nc1cccc2c(N)cccc12,AC50,[1]; [9],"0.00501 µM [falling, full curve, poor fit]"
same,max response,[6],80.1%
BrCC(Br)(Br)Br,AC50,[1]; [9],"25.1 µM [falling, full curve, poor fit]"
same,max response,[6],2.83%
same,AC50,[2],"50.1 µM [rising, single point]"
CC(C)OC(=O)C(O)(c1ccc(Br)cc1)c1ccc(Br)cc1,AC50,[1]; [9],"50.1 µM [falling, partial curve, poor fit]"
same,max response,[6],-33.1%
same,max response,[4],-5.78%
same,max response,[5],-50.8%
Cc1cnc[nH]1,AC50,[1]; [9],"50.1 µM [falling, single point]"
same,max response,[6],7.87%
same,AC50,[2],"63.1 µM [rising, single point]"
CC(=O)Oc1ccccc1C(=O)Nc1ncc([N+](=O)[O-])s1,AC50,[7],"2.51 µM [falling, full curve]"
same,AC50,[2],"8.91 µM [falling, partial curve, poor fit]"
same,max response,[4],57.3%
CNC(=O)Oc1cccc2ccccc12,max response,[6],12.5%
CN(C)c1ccc(N=O)cc1,AC50,[7],"31.6 µM [falling, partial curve, poor fit]"
same,max response,[6],-86.3%
same,AC50,[3],"10 µM [falling, full curve]"
same,max response,[4],29%
same,max response,[5],46.5%
CCSC(=O)N1CCCCCC1,max response,[6],-2.55%
Fc1ccc(Oc2ccnc3cc(Cl)cc(Cl)c23)cc1,AC50,[7],"35.5 µM [falling, partial curve, poor fit]"
same,max response,[6],-51.1%
same,max response,[4],-31.2%
c1ccc2c(c1)ccc1cc3c(ccc4ccccc43)cc12,max response,[6],78.2%
Nc1c(Br)cc([N+](=O)[O-])cc1[N+](=O)[O-],AC50,[1]; [9],"22.4 µM [falling, partial curve, poor fit]"
same,max response,[5],33.1%
CC1=NNC(=O)N(/N=C/c2cccnc2)C1,max response,[6],69.3%
O=C(Nc1ccc(Cl)cc1)Nc1ccc(Cl)c(Cl)c1,AC50,[7],"6.31 µM [falling, partial curve, poor fit]"
same,AC50,[2],"31.6 µM [falling, partial curve, poor fit]"
same,max response,[4],6.57%
same,AC50,[8]; [11],"8.91 µM [falling, full curve]"
same,AC50,[8]; [12],"8.91 µM [falling, full curve]"
COc1ccc(/C(=C/C(=O)N2CCOCC2)c2ccc(Cl)cc2)cc1OC,max response,[6],85.1%
CC1(C)CC/C(=C\c2ccc(Cl)cc2)C1(O)Cn1cncn1 (stereo not drawn),max response,[6],70.9%
Clc1ccc(C(c2ccc(Cl)cc2)C(Cl)Cl)cc1,AC50,[7],"39.8 µM [falling, partial curve, poor fit]"
same,max response,[6],-41.5%
same,AC50,[2],"8.91 µM [falling, full curve, poor fit]"
same,max response,[4],-5.46%
same,max response,[5],-5.14% and -8.13%
Oc1c(Cl)c(Cl)c(Cl)c(Cl)c1Cl,AC50,[7],"12.6 µM [falling, full curve, poor fit]"
same,AC50,[2],"12.6 µM [falling, full curve] and 5.62 µM [falling, full curve]"
same,max response,[4],19.7%
CC(C)(C)c1cc(O)ccc1O,AC50,[7],"28.2 µM [falling, partial curve, poor fit] and 44.7 µM [falling, single point]"
same,max response,[6],-75.5% and 63.6%
same,AC50,[2],"44.7 µM [rising, single point] and 63.1 µM [falling, partial curve, poor fit]"
same,max response,[4],-47.4%
same,max response,[5],-52.3%
same,AC50,[8]; [11],"1.41 µM [falling, full curve, poor fit]"
same,AC50,[8]; [12],"1 µM [falling, full curve, poor fit]"
O=c1n(Cl)c(=O)n(Cl)c(=O)n1Cl,max response,[6],-44.8%
Nc1ccc(-c2ccc(N)c(O)c2)cc1O,AC50,[7],"50.1 µM [falling, partial curve, poor fit]"
same,max response,[6],-84.5%
same,max response,[4],-46.3%
CC(C)(C)c1ccc(CSc2cnn(C(C)(C)C)c(=O)c2Cl)cc1,AC50,[7],"0.0631 µM [falling, full curve, poor fit]"
same,AC50,[2],"31.6 µM [falling, partial curve, poor fit]"
same,max response,[4],18.4%
same,max response,[5],-15.5%
O=[N+]([O-])c1cc(C(F)(F)F)c(Cl)c([N+](=O)[O-])c1Nc1ncc(C(F)(F)F)cc1Cl,AC50,[7],"28.2 µM [falling, partial curve]"
same,max response,[6],-122%
same,AC50,[3],"28.2 µM [falling, full curve, poor fit]"
same,max response,[4],-46%
same,max response,[5],-39.4%
CCC[CH2][Sn]([Cl])([CH2]CCC)[CH2]CCC,AC50,[7],"50.1 µM [falling, single point]"
same,max response,[6],-32.9%
same,AC50,[3],"50.1 µM [falling, single point]"
same,max response,[5],-23.8%
CC1=C(C(=O)Nc2ccccc2)SCCO1,max response,[6],-5.58%
COc1cnc(OC)n2nc(NS(=O)(=O)c3c(OCC(F)F)cccc3C(F)(F)F)nc12,AC50,[7],"31.6 µM [rising, single point]"
same,max response,[6],189%
same,max response,[4],-17.3%
CC1(c2ccc(Oc3ccccc3)cc2)OC(=O)N(Nc2ccccc2)C1=O (stereo not drawn),AC50,[7],"3.16 µM [rising, full curve, poor fit]"
same,max response,[6],-21%
same,AC50,[2],"35.5 µM [falling, partial curve]"
same,AC50,[3],"50.1 µM [falling, single point]"
same,max response,[4],31.7%
CC1(C)[C@H](C(=O)O[C@H](C#N)c2cccc(Oc3ccccc3)c2)[C@@H]1C=C(Br)Br,AC50,[7],"44.7 µM [falling, single point]"
same,AC50,[2],"44.7 µM [falling, partial curve, poor fit]"
same,max response,[5],-17.4%
CC[C@H](C)[C@H]1O[C@]2(C=C[C@@H]1C)C[C@@H]1C[C@@H](C/C=C(\C)[C@@H](O[C@H]3C[C@H](OC)[C@@H](O[C@H]4C[C@H](OC)[C@@H](O)[C@H](C)O4)[C@H](C)O3)[C@@H](C)/C=C/C=C3\CO[C@@H]4[C@H](O)C(C)=C[C@@H](C(=O)O1)[C@]34O)O2,AC50,[7],"5.01 µM [rising, full curve, poor fit]"
same,AC50,[3],"20 µM [falling, full curve]"
same,max response,[4],44.4%
Oc1ccc(Cl)cc1Sc1cc(Cl)ccc1O,AC50,[7],"17.8 µM [falling, full curve, poor fit]"
same,AC50,[2],"15.8 µM [falling, full curve]"
same,max response,[4],20.9%
same,max response,[5],-12%
N#Cc1cc(I)c(O)c(I)c1,AC50,[7],"28.2 µM [falling, single point]"
c1ccc2c(c1)-c1cccc3c1c-2cc1ccccc13,AC50,[7],"39.8 µM [rising, partial curve, poor fit]"
same,max response,[6],559% and 539%
same,AC50,[2],"44.7 µM [rising, partial curve]"
same,AC50,[3],"35.5 µM [rising, partial curve] and 50.1 µM [rising, single point]"
same,max response,[4],136% and 64.8%
same,max response,[5],99.7% and 65.5%
CCOCn1c(-c2ccc(Cl)cc2)c(C#N)c(Br)c1C(F)(F)F,AC50,[7],"0.794 µM [falling, full curve, poor fit]"
same,max response,[6],-1.04%
same,AC50,[2],"3.55 µM [falling, partial curve, poor fit]"
same,max response,[4],25.5%
CN1C[C@H](C(=O)N[C@]2(C)O[C@@]3(O)[C@@H]4CCCN4C(=O)[C@H](Cc4ccccc4)N3C2=O)C=C2c3cccc4[nH]cc(c34)C[C@H]21,AC50,[7],"50.1 µM [falling, single point]"
same,AC50,[2],"31.6 µM [falling, partial curve, poor fit]"
same,AC50,[3],"39.8 µM [falling, partial curve, poor fit]"
same,max response,[4],-25%
same,max response,[5],-31.5%
same,AC50,[8]; [11],"28.2 µM [falling, single point]"
OC(Cn1cncn1)(c1ccc(F)cc1)c1ccccc1F (stereo not drawn),max response,[6],-61.4%
CS(=O)(=O)c1cc(C(F)(F)F)ccc1C(=O)c1cnoc1C1CC1,AC50,[7],"3.98 µM [falling, full curve, poor fit]"
same,max response,[4],4.83%
Cc1cc(O)c2c(c1)C(=O)c1cc(O)cc(O)c1C2=O,AC50,[7],"10 µM [falling, full curve, poor fit]"
same,max response,[6],241% and 29.9%
same,max response,[4],40.6%
CSC1=N[C@@](C)(c2ccccc2)C(=O)N1Nc1ccccc1,AC50,[7],"3.16 µM [falling, full curve, poor fit]"
same,max response,[6],10.4%
same,max response,[5],6.06%

# An excerpt of these results, tab-delimited.
smiles	measurement	setting	value
Nc1ccccc1Cl	AC50	[2]	50.1 µM [rising, single point]
CC(C)(C)c1cc(O)ccc1O	AC50	[8]; [11]	1.41 µM [falling, full curve, poor fit]
c1ccc2c(c1)-c1cccc3c1c-2cc1ccccc13	AC50	[3]	35.5 µM [rising, partial curve] and 50.1 µM [rising, single point]
same	max response	[5]	99.7% and 65.5%

# Some of the entries so far, tab-delimited:
smiles	measurement	setting	value
CCC[CH2][Sn]([Cl])([CH2]CCC)[CH2]CCC	AC50	[3]	50.1 µM [falling, single point]
same	max response	[5]	-23.8%
CC1=C(C(=O)Nc2ccccc2)SCCO1	max response	[6]	-5.58%
COc1cnc(OC)n2nc(NS(=O)(=O)c3c(OCC(F)F)cccc3C(F)(F)F)nc12	AC50	[7]	31.6 µM [rising, single point]
